Results reported in the supplement of paper PMC12819154, “High-throughput peptide-centric local stability assay extends protein–ligand identification to membrane proteins, tissues and bacteria” (Nature Structural & Molecular Biology, 2025).
The list shows a part of the results. Most values lie at the level of the controls, where differences are scatter.

The chains behind the UniProt entries cited, without tags or fusion partners. Where a name states a change or a piece, a line headed by the entry shows the natural chain unless it says otherwise.
UniProt Q92851: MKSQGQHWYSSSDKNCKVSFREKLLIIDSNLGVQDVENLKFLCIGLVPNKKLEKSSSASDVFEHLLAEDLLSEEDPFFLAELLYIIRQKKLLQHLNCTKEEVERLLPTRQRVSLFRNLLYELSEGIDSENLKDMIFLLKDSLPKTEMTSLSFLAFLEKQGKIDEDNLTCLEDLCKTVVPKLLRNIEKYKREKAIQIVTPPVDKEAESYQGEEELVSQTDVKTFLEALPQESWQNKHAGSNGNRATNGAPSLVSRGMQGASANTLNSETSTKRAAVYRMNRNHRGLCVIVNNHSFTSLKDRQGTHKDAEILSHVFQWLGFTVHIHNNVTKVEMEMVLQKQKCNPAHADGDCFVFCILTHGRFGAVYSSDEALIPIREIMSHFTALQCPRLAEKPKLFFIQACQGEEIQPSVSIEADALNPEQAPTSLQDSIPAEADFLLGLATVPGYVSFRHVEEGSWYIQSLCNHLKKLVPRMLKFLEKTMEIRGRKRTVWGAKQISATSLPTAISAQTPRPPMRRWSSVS
UniProt Q96EQ0: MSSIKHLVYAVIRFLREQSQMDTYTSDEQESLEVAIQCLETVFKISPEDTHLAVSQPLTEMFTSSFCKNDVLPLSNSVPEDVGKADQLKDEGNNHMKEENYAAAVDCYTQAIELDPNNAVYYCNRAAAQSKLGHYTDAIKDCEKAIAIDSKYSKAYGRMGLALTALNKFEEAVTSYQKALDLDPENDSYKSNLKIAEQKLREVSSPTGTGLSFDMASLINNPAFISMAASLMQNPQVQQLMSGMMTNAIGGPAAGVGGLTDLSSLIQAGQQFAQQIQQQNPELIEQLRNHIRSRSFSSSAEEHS
UniProt Q92870: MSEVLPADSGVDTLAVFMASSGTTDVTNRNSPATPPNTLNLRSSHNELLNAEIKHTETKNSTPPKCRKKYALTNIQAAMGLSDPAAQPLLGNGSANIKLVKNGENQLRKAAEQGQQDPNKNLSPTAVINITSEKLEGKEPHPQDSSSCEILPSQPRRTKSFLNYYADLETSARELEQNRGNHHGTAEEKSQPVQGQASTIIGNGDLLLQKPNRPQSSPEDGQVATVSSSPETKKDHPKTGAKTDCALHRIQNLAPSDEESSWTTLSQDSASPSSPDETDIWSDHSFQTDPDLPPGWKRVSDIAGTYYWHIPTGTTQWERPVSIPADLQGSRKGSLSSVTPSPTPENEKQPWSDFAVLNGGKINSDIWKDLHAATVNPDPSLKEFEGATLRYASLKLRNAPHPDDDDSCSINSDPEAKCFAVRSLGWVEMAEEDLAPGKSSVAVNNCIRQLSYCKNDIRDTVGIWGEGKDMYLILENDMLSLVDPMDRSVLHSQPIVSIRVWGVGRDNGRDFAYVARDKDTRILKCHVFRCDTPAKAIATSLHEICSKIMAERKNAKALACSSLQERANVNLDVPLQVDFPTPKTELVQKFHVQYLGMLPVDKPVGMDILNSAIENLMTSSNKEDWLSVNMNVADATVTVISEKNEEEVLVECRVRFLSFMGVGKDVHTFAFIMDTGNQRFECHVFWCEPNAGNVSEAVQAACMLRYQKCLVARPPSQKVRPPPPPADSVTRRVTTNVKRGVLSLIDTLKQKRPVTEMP
UniProt Q96EF9: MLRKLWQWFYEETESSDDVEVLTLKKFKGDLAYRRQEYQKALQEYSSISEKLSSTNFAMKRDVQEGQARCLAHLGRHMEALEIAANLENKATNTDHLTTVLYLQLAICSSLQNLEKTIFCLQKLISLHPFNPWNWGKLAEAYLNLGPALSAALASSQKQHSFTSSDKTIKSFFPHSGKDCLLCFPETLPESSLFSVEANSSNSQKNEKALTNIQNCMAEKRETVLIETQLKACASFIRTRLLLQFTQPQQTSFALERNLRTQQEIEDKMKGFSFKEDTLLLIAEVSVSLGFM
UniProt Q96CP2: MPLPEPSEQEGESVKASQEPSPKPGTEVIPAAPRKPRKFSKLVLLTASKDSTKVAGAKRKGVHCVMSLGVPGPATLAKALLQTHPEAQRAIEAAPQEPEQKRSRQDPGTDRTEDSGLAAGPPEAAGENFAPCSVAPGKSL
UniProt Q96CJ1: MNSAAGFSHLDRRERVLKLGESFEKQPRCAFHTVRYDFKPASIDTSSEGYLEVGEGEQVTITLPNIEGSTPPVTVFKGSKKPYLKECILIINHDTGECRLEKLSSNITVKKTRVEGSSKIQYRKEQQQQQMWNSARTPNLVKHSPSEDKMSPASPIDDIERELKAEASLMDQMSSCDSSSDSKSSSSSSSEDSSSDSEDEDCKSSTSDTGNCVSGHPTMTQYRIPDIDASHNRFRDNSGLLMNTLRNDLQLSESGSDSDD
UniProt Q92905, whole entry, looked up: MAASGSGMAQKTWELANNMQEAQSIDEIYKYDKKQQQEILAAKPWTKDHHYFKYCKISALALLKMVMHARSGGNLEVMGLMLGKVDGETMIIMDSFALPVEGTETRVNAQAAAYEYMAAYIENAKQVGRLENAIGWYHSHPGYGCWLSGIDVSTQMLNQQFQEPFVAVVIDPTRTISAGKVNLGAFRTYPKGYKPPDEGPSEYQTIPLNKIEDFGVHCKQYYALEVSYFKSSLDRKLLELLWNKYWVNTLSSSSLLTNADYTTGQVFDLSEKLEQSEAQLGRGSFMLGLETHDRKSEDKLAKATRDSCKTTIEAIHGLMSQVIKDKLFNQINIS
UniProt Q969T7: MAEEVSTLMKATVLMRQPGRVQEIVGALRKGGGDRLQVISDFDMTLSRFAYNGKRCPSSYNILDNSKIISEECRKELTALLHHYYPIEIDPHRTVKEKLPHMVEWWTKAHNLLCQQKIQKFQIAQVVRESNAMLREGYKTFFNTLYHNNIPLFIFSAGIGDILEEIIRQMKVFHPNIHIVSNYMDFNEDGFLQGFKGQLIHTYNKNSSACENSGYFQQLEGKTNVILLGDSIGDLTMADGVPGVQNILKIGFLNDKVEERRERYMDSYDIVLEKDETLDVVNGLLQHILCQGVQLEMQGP
UniProt Q92922, whole entry: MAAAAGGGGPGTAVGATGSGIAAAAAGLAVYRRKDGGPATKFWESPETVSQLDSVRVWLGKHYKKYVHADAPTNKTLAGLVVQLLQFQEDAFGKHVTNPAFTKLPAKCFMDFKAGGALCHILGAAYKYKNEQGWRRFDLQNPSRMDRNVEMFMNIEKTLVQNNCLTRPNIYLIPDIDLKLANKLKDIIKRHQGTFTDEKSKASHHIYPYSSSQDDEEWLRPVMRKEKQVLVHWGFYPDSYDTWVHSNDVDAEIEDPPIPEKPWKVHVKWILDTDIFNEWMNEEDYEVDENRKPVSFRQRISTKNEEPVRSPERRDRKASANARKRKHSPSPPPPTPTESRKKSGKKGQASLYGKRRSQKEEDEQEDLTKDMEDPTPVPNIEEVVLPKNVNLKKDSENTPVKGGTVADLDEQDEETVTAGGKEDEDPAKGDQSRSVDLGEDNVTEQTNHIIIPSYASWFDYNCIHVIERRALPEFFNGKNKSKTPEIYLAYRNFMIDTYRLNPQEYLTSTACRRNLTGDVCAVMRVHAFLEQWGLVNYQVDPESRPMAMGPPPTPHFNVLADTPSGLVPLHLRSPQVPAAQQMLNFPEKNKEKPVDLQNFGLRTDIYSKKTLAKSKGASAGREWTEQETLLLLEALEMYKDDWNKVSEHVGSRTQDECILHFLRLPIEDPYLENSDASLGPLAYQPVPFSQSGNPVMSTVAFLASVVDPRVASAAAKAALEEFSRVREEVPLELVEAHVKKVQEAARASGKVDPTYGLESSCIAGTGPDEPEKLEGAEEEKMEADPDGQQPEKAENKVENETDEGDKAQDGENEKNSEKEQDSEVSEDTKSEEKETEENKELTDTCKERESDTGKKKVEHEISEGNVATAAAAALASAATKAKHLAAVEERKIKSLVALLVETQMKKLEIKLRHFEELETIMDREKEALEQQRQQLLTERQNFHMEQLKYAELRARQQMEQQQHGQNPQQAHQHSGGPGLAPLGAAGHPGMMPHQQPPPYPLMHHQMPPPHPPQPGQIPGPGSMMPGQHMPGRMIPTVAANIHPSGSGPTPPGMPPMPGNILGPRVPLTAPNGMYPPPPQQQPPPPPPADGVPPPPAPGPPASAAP
UniProt Q96CT7: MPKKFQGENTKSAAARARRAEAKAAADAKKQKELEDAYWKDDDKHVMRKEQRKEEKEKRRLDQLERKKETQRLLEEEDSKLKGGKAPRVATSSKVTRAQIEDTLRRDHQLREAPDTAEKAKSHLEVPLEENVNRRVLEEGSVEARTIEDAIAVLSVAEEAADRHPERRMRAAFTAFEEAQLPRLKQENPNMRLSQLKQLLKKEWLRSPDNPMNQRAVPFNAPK
UniProt Q92843: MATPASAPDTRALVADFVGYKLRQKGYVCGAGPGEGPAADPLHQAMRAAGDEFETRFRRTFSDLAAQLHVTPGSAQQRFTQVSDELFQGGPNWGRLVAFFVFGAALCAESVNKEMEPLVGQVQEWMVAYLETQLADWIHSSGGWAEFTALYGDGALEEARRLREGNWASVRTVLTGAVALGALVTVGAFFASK
UniProt Q93052: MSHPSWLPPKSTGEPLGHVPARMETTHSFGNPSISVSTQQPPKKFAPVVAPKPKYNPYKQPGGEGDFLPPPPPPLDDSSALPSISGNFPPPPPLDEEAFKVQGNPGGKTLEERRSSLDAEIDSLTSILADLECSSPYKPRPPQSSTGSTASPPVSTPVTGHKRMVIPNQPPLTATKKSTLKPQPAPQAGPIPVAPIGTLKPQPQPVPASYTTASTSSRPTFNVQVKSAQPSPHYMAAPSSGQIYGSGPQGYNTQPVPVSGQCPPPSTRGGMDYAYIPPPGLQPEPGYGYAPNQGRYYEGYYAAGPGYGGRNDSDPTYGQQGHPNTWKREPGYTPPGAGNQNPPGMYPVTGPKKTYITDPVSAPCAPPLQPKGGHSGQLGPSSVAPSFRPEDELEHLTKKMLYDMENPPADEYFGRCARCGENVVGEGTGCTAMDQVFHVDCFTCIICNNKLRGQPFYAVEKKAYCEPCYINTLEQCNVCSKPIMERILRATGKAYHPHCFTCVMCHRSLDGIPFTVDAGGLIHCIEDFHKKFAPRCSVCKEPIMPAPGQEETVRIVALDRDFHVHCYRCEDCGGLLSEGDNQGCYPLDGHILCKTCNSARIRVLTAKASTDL
UniProt Q92686, whole entry: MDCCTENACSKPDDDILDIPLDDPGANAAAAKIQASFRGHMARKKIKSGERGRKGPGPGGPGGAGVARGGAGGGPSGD
UniProt Q92871: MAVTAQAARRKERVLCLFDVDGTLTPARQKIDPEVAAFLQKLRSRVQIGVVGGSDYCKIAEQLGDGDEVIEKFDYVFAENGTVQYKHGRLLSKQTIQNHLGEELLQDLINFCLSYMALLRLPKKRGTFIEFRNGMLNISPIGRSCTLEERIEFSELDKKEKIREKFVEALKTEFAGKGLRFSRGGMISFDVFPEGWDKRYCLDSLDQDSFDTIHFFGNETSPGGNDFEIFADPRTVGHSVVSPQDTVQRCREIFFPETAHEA
UniProt Q92834: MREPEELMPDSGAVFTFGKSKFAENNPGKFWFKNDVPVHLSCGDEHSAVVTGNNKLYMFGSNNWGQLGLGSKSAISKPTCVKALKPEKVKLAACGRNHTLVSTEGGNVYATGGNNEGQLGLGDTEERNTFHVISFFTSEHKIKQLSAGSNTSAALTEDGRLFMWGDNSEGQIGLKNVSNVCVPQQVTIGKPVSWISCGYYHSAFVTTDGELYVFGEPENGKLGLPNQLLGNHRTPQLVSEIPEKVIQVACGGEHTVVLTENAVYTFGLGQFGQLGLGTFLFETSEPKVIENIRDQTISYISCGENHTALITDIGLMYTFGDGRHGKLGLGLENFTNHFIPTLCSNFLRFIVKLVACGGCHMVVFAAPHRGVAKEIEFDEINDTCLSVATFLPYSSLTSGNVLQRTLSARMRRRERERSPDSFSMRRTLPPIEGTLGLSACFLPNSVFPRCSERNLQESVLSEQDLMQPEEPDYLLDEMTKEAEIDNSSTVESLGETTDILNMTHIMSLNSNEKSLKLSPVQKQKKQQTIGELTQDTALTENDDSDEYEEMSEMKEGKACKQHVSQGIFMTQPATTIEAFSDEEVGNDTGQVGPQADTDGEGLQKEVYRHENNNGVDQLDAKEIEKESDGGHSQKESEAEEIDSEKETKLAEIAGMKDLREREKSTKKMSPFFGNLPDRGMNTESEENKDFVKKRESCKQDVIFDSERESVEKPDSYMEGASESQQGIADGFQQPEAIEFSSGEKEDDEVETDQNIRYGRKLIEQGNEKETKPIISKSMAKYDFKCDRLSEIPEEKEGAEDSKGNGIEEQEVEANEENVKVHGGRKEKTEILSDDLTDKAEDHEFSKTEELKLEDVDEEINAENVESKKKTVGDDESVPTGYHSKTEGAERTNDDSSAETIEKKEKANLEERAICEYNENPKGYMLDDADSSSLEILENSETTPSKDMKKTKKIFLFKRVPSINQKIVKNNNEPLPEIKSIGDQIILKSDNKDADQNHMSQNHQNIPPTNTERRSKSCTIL

compound: Cc1nc(Nc2ncc(C(=O)Nc3c(C)cccc3Cl)s2)cc(N2CCN(CCO)CC2)n1 [dasatinib]; assay: log2 fold change of tryptic peptide abundance, ligand vs vehicle (limited proteolysis) (log2 ratio); higher = more trypsin-susceptible (destabilized); details: ligand concentration: 5 uM; sample: K562 cleared lysate

Target | log2 fold change
CASP10 (peptide sequence: EIMSHFTALQCPR, peptide start residue: 376) (UniProt Q92851) | -0.543
DAZAP1 (peptide sequence: DSKSQAPGQPGASQWGSR, peptide start residue: 192) (UniProt Q96EP5) | 0.263
SGTB (peptide sequence: SFSSSAEEHS, peptide start residue: 295) (UniProt Q96EQ0) | -0.028
MRPL38 (peptide sequence: TQQLLER, peptide start residue: 100) (UniProt Q96DV4) | 0.217
APBB2 (peptide sequence: VRPPPPPADSVTR, peptide start residue: 719) (UniProt Q92870) | 0.271
EME1 (peptide sequence: QPEASIGSMVSR, peptide start residue: 394) (UniProt Q96AY2) | 0.316
UniProt Q96EF9 (peptide sequence: FKGDLAYR, peptide start residue: 59) | -0.12
ADAT3 (peptide sequence: LLKEVSALHPLPAQPHLKR, peptide start residue: 59) (UniProt Q96EY9) | -0.49
ALKBH8 (peptide sequence: QVSNSKLPVHVNR, peptide start residue: 572) (UniProt Q96BT7) | -0.455
FLYWCH2 (peptide sequence: KGVHCVMSLGVPGPATLAK, peptide start residue: 60) (UniProt Q96CP2) | 0.165
UniProt Q96CJ1 (peptide sequence: IPDIDASHNR, peptide start residue: 224) | -0.183
COPS5 (peptide sequence: TTIEAIHGLMSQVIKDK, peptide start residue: 310) (UniProt Q92905) | -0.203
RSC1A1 (peptide sequence: ASAEFQLNSEKK, peptide start residue: 58) (UniProt Q92681) | -0.417
INPP5D (peptide sequence: HRPEEGPPGPLGR, peptide start residue: 1173) (UniProt Q92835) | -0.399
NT5C3B (peptide sequence: IGFLNDKVEER, peptide start residue: 250) (UniProt Q969T7) | 0.157
SMARCC1 (peptide sequence: NKEKPVDLQNFGLR, peptide start residue: 589) (UniProt Q92922) | -0.0818
WBP2 (peptide sequence: KGTVYLTPYR, peptide start residue: 47) (UniProt Q969T9) | -0.286
AKAP1 (peptide sequence: VLEEALLSR, peptide start residue: 214) (UniProt Q92667) | 0.211
CCDC124 (peptide sequence: AKSHLEVPLEENVNRR, peptide start residue: 120) (UniProt Q96CT7) | -0.25
BCL2L2 (peptide sequence: ALVADFVGYK, peptide start residue: 12) (UniProt Q92843) | -0.213
LPP (peptide sequence: KFAPRCSVCK, peptide start residue: 531) (UniProt Q93052) | -0.0306
UniProt Q96EH5 (peptide sequence: QNRPIPQWIQMKPGSK, peptide start residue: 19) | 0.293
NRGN (peptide sequence: GPGPGGPGGAGVAR, peptide start residue: 55) (UniProt Q92686) | 0.434
PMM1 (peptide sequence: EKFVEALKTEFAGK, peptide start residue: 164) (UniProt Q92871) | 0.506
UniProt Q92824 (peptide sequence: YDASNENK, peptide start residue: 238) | -0.231
UniProt Q96C28 (peptide sequence: TDAKPTAFPCQVLTQR, peptide start residue: 141) | 0.204
RPGR (peptide sequence: LAEIAGMKDLRER, peptide start residue: 649) (UniProt Q92834) | 0.214

Fetched one by one from above, two records:
Target | log2 fold change
PMM1 (peptide sequence: EKFVEALKTEFAGK, peptide start residue: 164) (UniProt Q92871) | 0.506
UniProt Q92824 (peptide sequence: YDASNENK, peptide start residue: 238) | -0.231
